Data as given in PubChem BioAssay AID652272 (Drosophila RNAi Screening Center, 2013).
The deposit covers about 21,000 reagents; this is an unselected part of those that have a named target and a result. Of all reagents, 503 (2.4%) are marked active. 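Raw plate light values, not normalised; calls rest on replicate z-scores that were not deposited; hits include reporter decreases as well as increases.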 A number with no mark means an inactive call. Not given: the amount of reagent, the time to read-out.

Screen: 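Genes whose knock-down decreases or increases Hedgehog reporter output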 (primary screen)
Cells: Drosophila clone 8 (Cl8) cells
Knock-down reagent: long dsRNA against Drosophila genes
Measurement: 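Firefly light from a Hedgehog-responsive ptc promoter reporter and Renilla reference light, both read on a plate reader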
Direction: firefly Hh reporter signal: higher = more ptc reporter light; Renilla reference signal: higher = more Renilla control light
Hit rule: 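Hit when the z-score averaged over two replicates is under -2 or over +3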
Calls: active = hit: reporter lowered or raised; inactive = not a hit

Which result is listed for Oatp58Db [DRSC04364]?
firefly Hh reporter signal, replicate 1: 1.28e5; firefly Hh reporter signal, replicate 2: 43629; Renilla reference signal, replicate 1: 3013; Renilla reference signal, replicate 2: 2519

Which result is listed for ana [DRSC07579]?
firefly Hh reporter signal, replicate 1: 1.57e5; firefly Hh reporter signal, replicate 2: 84930; Renilla reference signal, replicate 1: 5377; Renilla reference signal, replicate 2: 2673

With CG3655 [DRSC17676], what was measured?
firefly Hh reporter signal, replicate 1: 6.29e5; firefly Hh reporter signal, replicate 2: 3.26e5; Renilla reference signal, replicate 1: 26978; Renilla reference signal, replicate 2: 6296

What did the screen give for CG3655 [DRSC18181]?
firefly Hh reporter signal, replicate 1: 72928; firefly Hh reporter signal, replicate 2: 1.88e5; Renilla reference signal, replicate 1: 2349; Renilla reference signal, replicate 2: 8057

How did the screen score CG3655 [DRSC18477]?
firefly Hh reporter signal, replicate 1: 64304; firefly Hh reporter signal, replicate 2: 1.42e5; Renilla reference signal, replicate 1: 1776; Renilla reference signal, replicate 2: 6048

How did the screen score CG7903 [DRSC16338]?
firefly Hh reporter signal, replicate 1: 1.02e5; firefly Hh reporter signal, replicate 2: 1.27e5; Renilla reference signal, replicate 1: 4274; Renilla reference signal, replicate 2: 4073

Which result is listed for CG34001 [DRSC09042]?
firefly Hh reporter signal, replicate 1: 85845; firefly Hh reporter signal, replicate 2: 2.57e5; Renilla reference signal, replicate 1: 2235; Renilla reference signal, replicate 2: 9943

For Patronin [DRSC06756], what was measured?
firefly Hh reporter signal, replicate 1: 77640; firefly Hh reporter signal, replicate 2: 90323; Renilla reference signal, replicate 1: 1734; Renilla reference signal, replicate 2: 6360

How did the screen score Patronin [DRSC06757]?
firefly Hh reporter signal, replicate 1: 97441; firefly Hh reporter signal, replicate 2: 42592; Renilla reference signal, replicate 1: 2933; Renilla reference signal, replicate 2: 3175

How did the screen score Patronin [DRSC06994]?
firefly Hh reporter signal, replicate 1: 83220; firefly Hh reporter signal, replicate 2: 60480; Renilla reference signal, replicate 1: 2539; Renilla reference signal, replicate 2: 4728

What is on record for tut [DRSC08909]?
firefly Hh reporter signal, replicate 1: 1.20e5; firefly Hh reporter signal, replicate 2: 2.23e5; Renilla reference signal, replicate 1: 2969; Renilla reference signal, replicate 2: 9371

With CG7024 [DRSC18414], what was measured?
firefly Hh reporter signal, replicate 1: 60210; firefly Hh reporter signal, replicate 2: 1.18e5; Renilla reference signal, replicate 1: 1889; Renilla reference signal, replicate 2: 5316

Which result is listed for CG7745 [DRSC07037]?
firefly Hh reporter signal, replicate 1: 54968; firefly Hh reporter signal, replicate 2: 36913; Renilla reference signal, replicate 1: 2330; Renilla reference signal, replicate 2: 1450

No new results follow: 3 of the entries above.
ana [DRSC07579] — firefly Hh reporter signal, replicate 1 = 1.57e5; firefly Hh reporter signal, replicate 2 = 84930; Renilla reference signal, replicate 1 = 5377; Renilla reference signal, replicate 2 = 2673
CG3655 [DRSC17676] — firefly Hh reporter signal, replicate 1 = 6.29e5; firefly Hh reporter signal, replicate 2 = 3.26e5; Renilla reference signal, replicate 1 = 26978; Renilla reference signal, replicate 2 = 6296
CG3655 [DRSC18181] — firefly Hh reporter signal, replicate 1 = 72928; firefly Hh reporter signal, replicate 2 = 1.88e5; Renilla reference signal, replicate 1 = 2349; Renilla reference signal, replicate 2 = 8057

Further reagents follow.
For Su(Tpl) [DRSC10954], what does the deposit list?
firefly Hh reporter signal, replicate 1: 64873; firefly Hh reporter signal, replicate 2: 72624; Renilla reference signal, replicate 1: 2438; Renilla reference signal, replicate 2: 2620

With CG13801 [DRSC08335], what does the deposit list?
firefly Hh reporter signal, replicate 1: 86504; firefly Hh reporter signal, replicate 2: 50323; Renilla reference signal, replicate 1: 2880; Renilla reference signal, replicate 2: 3581

Which result is listed for CG12971 [DRSC11681]?
firefly Hh reporter signal, replicate 1: 95238; firefly Hh reporter signal, replicate 2: 1.22e5; Renilla reference signal, replicate 1: 3536; Renilla reference signal, replicate 2: 3441

How did the screen score beat-IIIc [DRSC02438]?
firefly Hh reporter signal, replicate 1: 1.12e5; firefly Hh reporter signal, replicate 2: 1.03e5; Renilla reference signal, replicate 1: 2868; Renilla reference signal, replicate 2: 7124

For beat-IIIc [DRSC02949], how do the results read?
firefly Hh reporter signal, replicate 1: 1.16e5; firefly Hh reporter signal, replicate 2: 81393; Renilla reference signal, replicate 1: 2797; Renilla reference signal, replicate 2: 6963

Which result is listed for vilya [DRSC18588]?
firefly Hh reporter signal, replicate 1: 71469; firefly Hh reporter signal, replicate 2: 1.63e5; Renilla reference signal, replicate 1: 1802; Renilla reference signal, replicate 2: 6755

For l(3)mbn [DRSC08793], what does the deposit list?
firefly Hh reporter signal, replicate 1: 1.59e5; firefly Hh reporter signal, replicate 2: 2.46e5; Renilla reference signal, replicate 1: 5012; Renilla reference signal, replicate 2: 11449

How did the screen score CG6843 [DRSC10725]?
firefly Hh reporter signal, replicate 1: 1.05e5; firefly Hh reporter signal, replicate 2: 1.66e5; Renilla reference signal, replicate 1: 3332; Renilla reference signal, replicate 2: 4616

How did the screen score CG12880 [DRSC14568]?
firefly Hh reporter signal, replicate 1: 88887; firefly Hh reporter signal, replicate 2: 73349; Renilla reference signal, replicate 1: 1981; Renilla reference signal, replicate 2: 1760

With CG1986 [DRSC18197], how do the results read?
firefly Hh reporter signal, replicate 1: 61627; firefly Hh reporter signal, replicate 2: 1.20e5; Renilla reference signal, replicate 1: 2071; Renilla reference signal, replicate 2: 6240

What did the screen give for CG34193 [DRSC05665]?
firefly Hh reporter signal, replicate 1: 78724; firefly Hh reporter signal, replicate 2: 1.74e5; Renilla reference signal, replicate 1: 2624; Renilla reference signal, replicate 2: 7048

What did the screen give for mTerf3 [DRSC11759]?
firefly Hh reporter signal, replicate 1: 1.40e5; firefly Hh reporter signal, replicate 2: 1.01e5; Renilla reference signal, replicate 1: 5290; Renilla reference signal, replicate 2: 4557

With sta [DRSC18838], what does the deposit list?
firefly Hh reporter signal, replicate 1: 28089 (active); firefly Hh reporter signal, replicate 2: 1.12e5; Renilla reference signal, replicate 1: 2229; Renilla reference signal, replicate 2: 7689

For nrv1 [DRSC03382], how do the results read?
firefly Hh reporter signal, replicate 1: 75312; firefly Hh reporter signal, replicate 2: 1.35e5; Renilla reference signal, replicate 1: 3507; Renilla reference signal, replicate 2: 4811
